Reference: publication PMC7819943, “Rice protein-binding microarrays: a tool to detect cis-acting elements near promoter regions in rice”
The other results are listed elsewhere or left out.

Sequences of proteins named here, by UniProt entry; tags and fusion partners are left off.
UniProt Q0JBA9, entry or part of it: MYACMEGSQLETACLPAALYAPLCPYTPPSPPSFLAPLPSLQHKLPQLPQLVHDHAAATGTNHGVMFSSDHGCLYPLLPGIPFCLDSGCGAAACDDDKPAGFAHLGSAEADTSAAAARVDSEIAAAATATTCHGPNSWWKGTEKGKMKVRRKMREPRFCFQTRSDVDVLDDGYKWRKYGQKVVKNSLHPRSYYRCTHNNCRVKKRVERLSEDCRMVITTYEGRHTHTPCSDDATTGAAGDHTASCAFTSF

These sequences were tested against OsWRKY34 (Oryza sativa, UniProt Q0JBA9 1-250) (assay: protein-binding microarray (RPBM); PBS, 2% BSA, 51.3 ng/ul salmon testes DNA, 50 uM zinc acetate, 200 nM TF, 25 C, 1 h; high values mean tight binding). Conditions: protein: recombinant; tags: N-terminal polyhistidine and DsRed monomer fusion (pET32a); label: CyDye5-dUTP incorporated in the synthesized complementary strand; 3' TTTTT single-stranded linker to array surface; dsDNA, one strand shown.
Method in brief: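 Transcription factors were each fused at the N-terminus to a polyhistidine tag plus DsRed and expressed in E. coli BL21-CodonPlus before Ni–NTA purification. Binding to a double-stranded custom Agilent array was carried out with 200 nM protein at 25 °C for 1 h in PBS, 2% BSA, salmon testes DNA and 50 µM zinc acetate. The binding signal is per-feature fluorescence intensity, in arbitrary units, on an Axon 4000B scanner.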
For “GGTGGAGGCGGGCGCGGTGGAGGCGGGGAGGAAGGGGAGCCGGAGTCACCTAGTGCAG”, the binding signal was 15100 fluorescence intensity (a.u.). With “GGTTTTGTATCCTTCAAACCTGTCACAAGCTGTCATATTTCGGAGTCACCTAGTGCAG” the binding signal was 8860 fluorescence intensity (a.u.). With “GCCGCCGCCGCCGCCGCCGCCTTCCGCATCGTCGCCGTCGCGGAGTCACCTAGTGCAG” the binding signal was 8550 fluorescence intensity (a.u.). “GGCATTATTTCTATCCATCCGTACGAGATTCCTGTGTTTACGGAGTCACCTAGTGCAG” was tested, and the binding signal was 8740 fluorescence intensity (a.u.). With “CTTCCCCGCGCTGACCGAGCTTCGCGATCTAAAAGTCAAACGGAGTCACCTAGTGCAG” the binding signal was 9280 fluorescence intensity (a.u.). With “CGGCTCGACGCCCACCCGCAAACCCTCGCATTTCCCATCTCGGAGTCACCTAGTGCAG” the binding signal was 8300 fluorescence intensity (a.u.). In the case of “GTGACCTCTGCAATGCCATTGCCATGTTCTCTCTCTAGATCGGAGTCACCTAGTGCAG”, the binding signal is reported as 8530 fluorescence intensity (a.u.). With “TGTCATATCATCTCTGTTACTGTTTGGTGCACCTTTTTTTCGGAGTCACCTAGTGCAG” the binding signal was 9100 fluorescence intensity (a.u.). With “TGCACCACTCACCCTGCCACGCGCTATATATGGCCACCACCGGAGTCACCTAGTGCAG” the binding signal was 8280 fluorescence intensity (a.u.). “AGTATGATAATCTTGTTTGATGGGATTTGCAGTGCATTTCCGGAGTCACCTAGTGCAG” was tested, and the binding signal was 8040 fluorescence intensity (a.u.). “GAACCGCGCACGAATCCCTCACGACCGTCCACGCCTCGCGCGGAGTCACCTAGTGCAG” was tested, and the binding signal was 8040 fluorescence intensity (a.u.). For “ACTTATTTTCAGAATTCTGAACCTTTTAACCATGCCAGCCCGGAGTCACCTAGTGCAG”, the binding signal was 10400 fluorescence intensity (a.u.). “CGCAGGGTGGTGGTGGTACTTCCGTAATTTCCTTCCGATTCGGAGTCACCTAGTGCAG” was tested, and the binding signal was 16400 fluorescence intensity (a.u.). “GGATAGACTTTTCAGCTTTTTTTTTGTTTGTTTGTTAAATCGGAGTCACCTAGTGCAG” was tested, and the binding signal was 9200 fluorescence intensity (a.u.). For “CTCCAACGAAATCTTCGCCGTGTCAACCCGCGCCTCCGATCGGAGTCACCTAGTGCAG”, the binding signal was 8380 fluorescence intensity (a.u.). “ATCTTGTGTCTTGATCTATTGTTCCGTGTCCCCTCTCCTCCGGAGTCACCTAGTGCAG” was tested, and the binding signal was 10000 fluorescence intensity (a.u.). In the case of “TATCCTGTAACATGTTACAATCATTGTTCTTGCGCTAAGCCGGAGTCACCTAGTGCAG”, the binding signal is reported as 8530 fluorescence intensity (a.u.). In the case of “ATACTCTCTCTGTAGGTACATCTCTCTACCATCTCTGTCGCGGAGTCACCTAGTGCAG”, the binding signal is reported as 9840 fluorescence intensity (a.u.). With “TAAGTGGGCAACCCTCACCATATCTCCTTTTGCCTTTTATCGGAGTCACCTAGTGCAG” the binding signal was 8900 fluorescence intensity (a.u.). For “GTTATATATCGTTTTATTTTATTTAAGTTTGTTTCTATAACGGAGTCACCTAGTGCAG”, the binding signal was 9860 fluorescence intensity (a.u.). With “TCCTCTCATCTCCCTTTTTTTTTCTTCTCTTCGCGAGCTCCGGAGTCACCTAGTGCAG” the binding signal was 8620 fluorescence intensity (a.u.). For “CTCGAGCCCTTGATCATATCCTTTTCTTCCTTGTCCACCACGGAGTCACCTAGTGCAG”, the binding signal was 9460 fluorescence intensity (a.u.). For “CCTTTTTCTCACTTAGTAGGTGCCATCTAATGCCCTTGATCGGAGTCACCTAGTGCAG”, the binding signal was 9830 fluorescence intensity (a.u.). In the case of “TATTGATCTGACGATCTAATTGTGGTTATATGTGTTCTTGCGGAGTCACCTAGTGCAG”, the binding signal is reported as 9300 fluorescence intensity (a.u.). In the case of “GTCACCGTCTCGTCTCCGTCTCCGCCGCTCGTCGTCGACCCGGAGTCACCTAGTGCAG”, the binding signal is reported as 12600 fluorescence intensity (a.u.). In the case of “AAAACCGATCCGTTCTCATCAAAACCGCACTGTGTTTTGTCGGAGTCACCTAGTGCAG”, the binding signal is reported as 8250 fluorescence intensity (a.u.). In the case of “GTGGACTTGTATCTGCCAGTGATCCTCATGCTTTTTCAGTCGGAGTCACCTAGTGCAG”, the binding signal is reported as 8780 fluorescence intensity (a.u.). With “ATCTCCTCTCGACCACTAACATTTTAGTCACCTTGTCTCCCGGAGTCACCTAGTGCAG” the binding signal was 11400 fluorescence intensity (a.u.). For “AGGCTATTTCCCACGTTCCCGCCCCGTTGGCCAAATCTCTCGGAGTCACCTAGTGCAG”, the binding signal was 9860 fluorescence intensity (a.u.). For “GTCCGCTTTTATCCGCTCGCAACCCGGCCAACACAACATTCGGAGTCACCTAGTGCAG”, the binding signal was 15900 fluorescence intensity (a.u.). “TTGGTTGGTTGGTTTGGTGGGCGGCGGTGCCGGAGGAAGACGGAGTCACCTAGTGCAG” was tested, and the binding signal was 21900 fluorescence intensity (a.u.). For “CCCGCCTCACCTCACCTCACCTCACCTCTCACTCACTCACCGGAGTCACCTAGTGCAG”, the binding signal was 10100 fluorescence intensity (a.u.). With “CATGTCCGGTTTTCTTTGCCTTGCTTTGATCAATTCATCTCGGAGTCACCTAGTGCAG” the binding signal was 15300 fluorescence intensity (a.u.). With “CTCTCCTCGAGTCTCCTCTCCACCCTGGCAGTGTTATTGTCGGAGTCACCTAGTGCAG” the binding signal was 8750 fluorescence intensity (a.u.). “TAACTAACACTCTCTCTAAAATTCACATTTTCTCTCATTTCGGAGTCACCTAGTGCAG” was tested, and the binding signal was 8760 fluorescence intensity (a.u.). “GCCCATTTTTTTTTCTTTTTCCAATTTTCAAATTTATTCTCGGAGTCACCTAGTGCAG” was tested, and the binding signal was 8610 fluorescence intensity (a.u.). “TATCGATACGTGACCGTGTTGCCGTTTCTTCTTTCTTTTTCGGAGTCACCTAGTGCAG” was tested, and the binding signal was 8410 fluorescence intensity (a.u.). “AAGTAGTTTGTTCTCACTCCTCTTTGTTATAGTGTTATACCGGAGTCACCTAGTGCAG” was tested, and the binding signal was 8820 fluorescence intensity (a.u.). For “CTTTCTTTGTTTTCTTGCGCTTCCTCCTCGGCTGAGCTCACGGAGTCACCTAGTGCAG”, the binding signal was 8770 fluorescence intensity (a.u.). In the case of “AATTCTTCTCACATGCATGTCTTCCTGTCTCACGATAGCACGGAGTCACCTAGTGCAG”, the binding signal is reported as 10100 fluorescence intensity (a.u.). In the case of “CTCCTCCGCCGTTTTCTCCTTCTCTAAGCTACCGCCGCCGCGGAGTCACCTAGTGCAG”, the binding signal is reported as 13000 fluorescence intensity (a.u.). “GCCCGCGTTTTCTCCGGCCACCAACCATGGCCGCCGGCCGCGGAGTCACCTAGTGCAG” was tested, and the binding signal was 9090 fluorescence intensity (a.u.). For “TTCTCCTGGTCGTGGACGCGGCGCGGCGTCGGATTCTTCCCGGAGTCACCTAGTGCAG”, the binding signal was 8050 fluorescence intensity (a.u.). With “GGTTGCCGCCACACCAAGGAGGGTTTTTTTCTCGGTCAAACGGAGTCACCTAGTGCAG” the binding signal was 8990 fluorescence intensity (a.u.). In the case of “TAATTCATCGCCACGTACAAACGGACATCTGCTTTCTGAACGGAGTCACCTAGTGCAG”, the binding signal is reported as 9360 fluorescence intensity (a.u.). With “GCTAACTCCGTGTGACCATGTTGCCTACGATTTCCCTGAACGGAGTCACCTAGTGCAG” the binding signal was 9660 fluorescence intensity (a.u.). For “CTTAAACCGCAATAACATATATAGCGTGTCCTTTAACTTGCGGAGTCACCTAGTGCAG”, the binding signal was 8570 fluorescence intensity (a.u.). “TTATAATTTACCGTTTTTAATAATTTGTACTGGCATATCACGGAGTCACCTAGTGCAG” was tested, and the binding signal was 8040 fluorescence intensity (a.u.). “GCCAAGTCTCATTTTTGTCATGTATGGTGTTTACTGATTACGGAGTCACCTAGTGCAG” was tested, and the binding signal was 12400 fluorescence intensity (a.u.). With “CACTCCGCTACCCCACCTCTCCGGAAGCTTTCATTCGCGACGGAGTCACCTAGTGCAG” the binding signal was 8192 fluorescence intensity (a.u.). In the case of “GTTCATACGAATTTCTTCATCACCACCTTCACAAATCCCTCGGAGTCACCTAGTGCAG”, the binding signal is reported as 8030 fluorescence intensity (a.u.). For “CATGATTTGACAATGGGTGGGTTCGGATGAGATTGCCGTGCGGAGTCACCTAGTGCAG”, the binding signal was 8860 fluorescence intensity (a.u.). For “GGCGGCTCATCATCGGCTTTCATCGCCTCGCCTCTTCGTTCGGAGTCACCTAGTGCAG”, the binding signal was 15100 fluorescence intensity (a.u.). With “TTTCTCTGGCCTAGTTTGTTTATTTATCTTTTATCCCCTTCGGAGTCACCTAGTGCAG” the binding signal was 8240 fluorescence intensity (a.u.).
